Results: the supplement of paper PMC4683952
Counter-ions that a name gives are not always drawn. The list shows a part of the results. No stated cut-off is given here; in the data, active = 2.5 or more and inactive = the rest. Most values lie within the scatter of the assay; repeated measurements hardly agree.

Each compound was assayed on Lgr5 (MarsCy1-Lgr5-EGFP, U2OS) (assay: cell-surface Lgr5 expression (SCi1 fluorescence, background-subtracted) relative to WT control (fold of WT control); higher = more Lgr5 at the plasma membrane). Settings: U2OS MarsCy1-Lgr5-EGFP stable; treatment time: overnight; library: Prestwick; 20 µM.
With CN(C)[C@@H]1C(O)=C(C(N)=O)C(=O)[C@@]2(O)C(O)=C3C(=O)c4c(O)cccc4[C@@](C)(O)[C@H]3[C@H](O)[C@@H]12 [Oxytetracycline dihydrate] the “cell-surface Lgr5 expression” value was inactive: 0.554.
In the case of COc1cc(NC(C)CCCN)c2ncccc2c1 (stereo unspecified) [Primaquine diphosphate], the “cell-surface Lgr5 expression” value is reported as inactive: 0.785.
CCCCC1(COC(=O)CCC(=O)O)C(=O)N(c2ccccc2)N(c2ccccc2)C1=O [Suxibuzone] was tested, and the “cell-surface Lgr5 expression” value was inactive: 1.88.
For CCCCNc1c(C(=O)OCC)c(C)nc2c1cnn2CC [Tracazolate hydrochloride], the “cell-surface Lgr5 expression” value was inactive: 0.554.
O=c1cc(-c2ccc(O)cc2)oc2c([C@@H]3O[C@H](CO)[C@@H](O)[C@H](O)[C@H]3O)c(O)cc(O)c12 [Vitexin] was tested, and the “cell-surface Lgr5 expression” value was inactive: 1.91.
For COc1cc(-c2ccc(=O)[nH]n2)ccc1OC(F)F [Zardaverine], the “cell-surface Lgr5 expression” value was inactive: 1.01.
In the case of CCOC(=O)NNc1nncc2ccccc12 [Todralazine hydrochloride], the “cell-surface Lgr5 expression” value is reported as inactive: 1.85.
For CCCCN1CCCCC1C(=O)Nc1c(C)cccc1C (stereo unspecified) [Bupivacaine hydrochloride], the “cell-surface Lgr5 expression” value was inactive: 1.41.
In the case of CC[C@@H](C(=O)[C@@H](C)[C@@H](O)[C@H](C)CCc1ccc(C)c(O)c1C(=O)O)[C@H]1O[C@](CC)([C@H]2CC[C@](O)(CC)[C@H](C)O2)C[C@@H]1C [Lasalocid sodium salt], the “cell-surface Lgr5 expression” value is reported as inactive: 1.79.
CC(COc1ccccc1)NC(C)C(O)c1ccc(O)cc1 (stereo unspecified) [Isoxsuprine hydrochloride] was tested, and the “cell-surface Lgr5 expression” value was inactive: 2.23.
In the case of CC(C)(C)c1ccc(C(O)CCCN2CCC(C(O)(c3ccccc3)c3ccccc3)CC2)cc1 (stereo unspecified) [Terfenadine], the “cell-surface Lgr5 expression” value is reported as inactive: 0.651.
In the case of CC(=O)[C@H]1CC[C@H]2[C@@H]3CC=C4C[C@@H](O)CC[C@]4(C)[C@H]3CC[C@]12C [Pregnenolone], the “cell-surface Lgr5 expression” value is reported as inactive: 2.13.
In the case of COc1ccc(CC2c3cc(OC)c(OC)cc3CC[N+]2(C)CCC(=O)OCCCCCOC(=O)CC[N+]2(C)CCc3cc(OC)c(OC)cc3C2Cc2ccc(OC)c(OC)c2)cc1OC (stereo unspecified) [Atracurium besylate], the “cell-surface Lgr5 expression” value is reported as inactive: 0.985.
In the case of Cc1n[nH]c(=O)[nH]c1=O [Azathymine, 6], the “cell-surface Lgr5 expression” value is reported as active: 3.94.
In the case of CN(C)CCCN1c2ccccc2Sc2ccc(Cl)cc21 [Chlorpromazine hydrochloride], the “cell-surface Lgr5 expression” value is reported as inactive: 1.37.
In the case of CO[C@H]1C[C@H](O[C@H]2[C@H](C)[C@@H](O[C@@H]3O[C@H](C)C[C@H](N(C)C)[C@H]3O)[C@@H](C)C[C@@]3(CO3)C(=O)[C@H](C)[C@@H](O)[C@@H](C)[C@@H](C)OC(=O)[C@@H]2C)O[C@@H](C)[C@@H]1O [Oleandomycin phosphate], the “cell-surface Lgr5 expression” value is reported as inactive: 0.621.
Nc1ccc(S(=O)(=O)Nc2ccccn2)cc1 [Sulfapyridine] was tested, and the “cell-surface Lgr5 expression” value was inactive: 1.79.
With C[N+]1(C)CCC(OC(=O)C(O)(c2ccccc2)C2CCCC2)C1 (stereo unspecified) [Glycopyrrolate] the “cell-surface Lgr5 expression” value was inactive: 1.78.
With Clc1ccc(CCC(Cn2ccnc2)Sc2c(Cl)cccc2Cl)cc1 (stereo unspecified) [Butoconazole nitrate] the “cell-surface Lgr5 expression” value was inactive: 0.889.
With N#Cc1ccc(C(c2ccc(C#N)cc2)n2cncn2)cc1 [Letrozole] the “cell-surface Lgr5 expression” value was inactive: 1.47.
For NCc1ccccc1CC(=O)N[C@@H]1C(=O)N2C(C(=O)O)=C(CSc3nnnn3CC(=O)O)CS[C@H]12 [Ceforanide], the “cell-surface Lgr5 expression” value was inactive: 0.822.
In the case of N=C(NCCCCCCNC(=N)NC(=N)Nc1ccc(Cl)cc1)NC(=N)Nc1ccc(Cl)cc1 [Chlorhexidine], the “cell-surface Lgr5 expression” value is reported as inactive: 0.933.
In the case of COc1c2occc2cc2ccc(=O)oc12 [Methoxy-8-psoralen], the “cell-surface Lgr5 expression” value is reported as inactive: 0.77.
For CN1CCN(C2=Nc3ccccc3Oc3ccc(Cl)cc32)CC1 [Loxapine succinate], the “cell-surface Lgr5 expression” value was inactive: 1.05.
With C[C@@H]1C[C@H]2[C@@H]3C[C@H](F)C4=CC(=O)C=C[C@]4(C)[C@@]3(F)[C@@H](O)C[C@]2(C)[C@@]1(O)C(=O)CO [Flumethasone] the “cell-surface Lgr5 expression” value was active: 2.95.
O=C(O)Cc1ccc(-c2ccccc2)cc1 [Felbinac] was tested, and the “cell-surface Lgr5 expression” value was inactive: 1.91.
COc1cc(C(=O)OCCCN2CCCN(CCCOC(=O)c3cc(OC)c(OC)c(OC)c3)CC2)cc(OC)c1OC [Dilazep dihydrochloride] was tested, and the “cell-surface Lgr5 expression” value was inactive: 0.614.
For Cc1[nH]ccc2c1[nH]c1cc(=O)ccc12 [Harmol hydrochloride monohydrate], the “cell-surface Lgr5 expression” value was inactive: 0.978.
CCN(CC)CCOC(=O)C1(C2CCCCC2)CCCCC1 [Dicyclomine hydrochloride] was tested, and the “cell-surface Lgr5 expression” value was inactive: 1.88.
With CC(N/C(=N\C#N)Nc1ccncc1)C(C)(C)C (stereo unspecified) [Pinacidil] the “cell-surface Lgr5 expression” value was inactive: 0.822.
COc1ccc([C@@H]2CC(=O)c3c(O)cc(O)cc3O2)cc1O [Hesperetin] was tested, and the “cell-surface Lgr5 expression” value was inactive: 0.844.
In the case of CN(C)CCCN1c2ccccc2Sc2ccc(C(F)(F)F)cc21 [Triflupromazine hydrochloride], the “cell-surface Lgr5 expression” value is reported as inactive: 1.93.
With Cc1ccc(C(=O)c2ccc(CC(=O)O)n2C)cc1 [Tolmetin sodium salt dihydrate] the “cell-surface Lgr5 expression” value was inactive: 1.91.
COC(=O)Nc1nc2cc(C(=O)c3cccs3)ccc2[nH]1 [Nocodazole] was tested, and the “cell-surface Lgr5 expression” value was inactive: 0.941.
With CCCCN(CCCC)CCCOC(=O)c1ccc(N)cc1 [Butacaine] the “cell-surface Lgr5 expression” value was active: 2.64.
For CC[N+](C)(CC)CCOC(=O)C1c2ccccc2Oc2ccccc21 [Methantheline bromide], the “cell-surface Lgr5 expression” value was inactive: 1.21.
CC(=O)OCC(=O)[C@@]1(O)CC[C@H]2[C@@H]3CCC4=CC(=O)CC[C@]4(C)[C@@]3(F)[C@@H](O)C[C@@]21C [Fludrocortisone acetate] was tested, and the “cell-surface Lgr5 expression” value was inactive: 2.
With COc1ccc2c3c([nH]c2c1)[C@H]1C[C@H]2[C@H](C[C@@H](O)[C@H](OC)[C@H]2C(=O)O)CN1CC3 [Reserpinic acid hydrochloride] the “cell-surface Lgr5 expression” value was inactive: 0.978.
In the case of NS(=O)(=O)c1cc(C2(O)NC(=O)c3ccccc32)ccc1Cl (stereo unspecified) [Chlorthalidone], the “cell-surface Lgr5 expression” value is reported as inactive: 1.88.
C=CC(N)CCC(=O)O (stereo unspecified) [Vigabatrin] was tested, and the “cell-surface Lgr5 expression” value was inactive: 2.35.
For Cc1ncc(C[n+]2csc(CCO)c2C)c(N)n1 [Thiamine hydrochloride], the “cell-surface Lgr5 expression” value was active: 3.64.
With CCN[C@H]1CN(CCCOC)S(=O)(=O)c2sc(S(N)(=O)=O)cc21 [Brinzolamide] the “cell-surface Lgr5 expression” value was inactive: 1.73.
CCCOc1cc(N)ccc1C(=O)OCCN(CC)CC [Propoxycaine hydrochloride] was tested, and the “cell-surface Lgr5 expression” value was inactive: 1.15.
CC[N+](C)(C)c1cccc(O)c1 [Edrophonium chloride] was tested, and the “cell-surface Lgr5 expression” value was inactive: 1.04.
OCCN1CCN(CC/C=C2/c3ccccc3Sc3ccc(C(F)(F)F)cc32)CC1 [Flupentixol dihydrochloride cis-(Z)] was tested, and the “cell-surface Lgr5 expression” value was inactive: 0.829.
For CN1CCC(=C2c3ccccc3C=Cc3ccccc32)CC1 [Cyproheptadine hydrochloride], the “cell-surface Lgr5 expression” value was inactive: 1.16.
In the case of CC(C)(C)NC[C@@H](O)COc1cccc2c1CCCC2=O [(+) -Levobunolol hydrochloride], the “cell-surface Lgr5 expression” value is reported as inactive: 2.49.
In the case of N=C(N)NC(=N)NCCc1ccccc1 [Phenformin hydrochloride], the “cell-surface Lgr5 expression” value is reported as inactive: 0.576.
For CC(=O)S[C@@H]1CC2=CC(=O)CC[C@]2(C)[C@H]2CC[C@@]3(C)[C@@H](CC[C@@]34CCC(=O)O4)[C@H]12 [Spironolactone], the “cell-surface Lgr5 expression” value was inactive: 0.576.
In the case of CC(Cc1cccc(C(F)(F)F)c1)NCCOC(=O)c1ccccc1 (stereo unspecified) [Benfluorex hydrochloride], the “cell-surface Lgr5 expression” value is reported as inactive: 1.41.
C=C1CC[C@H](O)C/C1=C/C=C1\CCC[C@]2(C)[C@@H]([C@H](C)CCCC(C)C)CC[C@@H]12 [Cholecalciferol] was tested, and the “cell-surface Lgr5 expression” value was active: 2.86.
NNCCc1ccccc1 [Phenelzine sulfate] was tested, and the “cell-surface Lgr5 expression” value was inactive: 1.13.
With C=C(C)[C@@H]1CC[C@]2(C(=O)O)CC[C@]3(C)[C@H](CC[C@@H]4[C@@]5(C)CC[C@H](O)C(C)(C)[C@@H]5CC[C@]43C)[C@@H]12 [Betulinic acid] the “cell-surface Lgr5 expression” value was inactive: 1.53.
With O=C1NCCN1c1ncc([N+](=O)[O-])s1 [Niridazole] the “cell-surface Lgr5 expression” value was inactive: 0.621.
For CC(C)(C)C(=O)OCOC(=O)[C@@H]1N2C(=O)[C@@H](/N=C/N3CCCCCC3)[C@H]2SC1(C)C [Pivmecillinam hydrochloride], the “cell-surface Lgr5 expression” value was inactive: 1.76.
OCC(O)CN1CCN(c2ccccc2)CC1 (racemic) [Dropropizine (R,S)] was tested, and the “cell-surface Lgr5 expression” value was inactive: 0.933.
CNc1ncnc2c1ncn2[C@@H]1O[C@H](CO)[C@@H](O)[C@H]1O [N6-methyladenosine] was tested, and the “cell-surface Lgr5 expression” value was inactive: 1.62.
C[C@@H](O)[C@H]1C(=O)N2C(C(=O)O)=C(SCCNC=N)C[C@H]12 [Imipenem] was tested, and the “cell-surface Lgr5 expression” value was inactive: 2.09.
With c1ccc2c(c1)CCCC2C1=NCCN1 (stereo unspecified) [Tetrahydrozoline hydrochloride] the “cell-surface Lgr5 expression” value was inactive: 1.82.
For CCN(CC)CCCC(C)Nc1ccnc2cc(Cl)ccc12 (stereo unspecified) [Chloroquine diphosphate], the “cell-surface Lgr5 expression” value was active: 2.87.
With CS(=O)(=O)c1ccc([C@@H](O)[C@@H](CF)NC(=O)C(Cl)Cl)cc1 [Florfenicol] the “cell-surface Lgr5 expression” value was inactive: 1.37.
In the case of Nc1ccc(S(=O)(=O)NC(=O)c2ccccc2)cc1 [Sulfabenzamide], the “cell-surface Lgr5 expression” value is reported as active: 2.58.
With C=C(CC)C(=O)c1ccc(OCC(=O)O)c(Cl)c1Cl [Ethacrynic acid] the “cell-surface Lgr5 expression” value was inactive: 1.07.
For CCCc1ncc(C[n+]2ccccc2C)c(N)n1 [Amprolium hydrochloride], the “cell-surface Lgr5 expression” value was inactive: 1.3.
With CC(C(=O)O)c1cccc(Oc2ccccc2)c1 (stereo unspecified) [Fenoprofen calcium salt dihydrate] the “cell-surface Lgr5 expression” value was active: 3.88.
For CCn1cc(C(=O)O)c(=O)c2cc(F)c(N3CCNCC3)nc21 [Enoxacin], the “cell-surface Lgr5 expression” value was inactive: 1.39.
